Results: patent US20180079822A1 (UNITED STATES OF AMERICA AS REPRESENTED BY THE SECRETARY OF …, published 2018)
Residue numbers refer to the chain shown, from its start. Numbers in names are those of the source. No constants are given. Whether binding was seen depends on the method and setting. Some binding calls cover weakened binding; strength is not graded here.

Amino acid sequences for entries named in this document (tags omitted). A change or cut given only in a name is not applied to a line headed by its entry.
UniProt P11836: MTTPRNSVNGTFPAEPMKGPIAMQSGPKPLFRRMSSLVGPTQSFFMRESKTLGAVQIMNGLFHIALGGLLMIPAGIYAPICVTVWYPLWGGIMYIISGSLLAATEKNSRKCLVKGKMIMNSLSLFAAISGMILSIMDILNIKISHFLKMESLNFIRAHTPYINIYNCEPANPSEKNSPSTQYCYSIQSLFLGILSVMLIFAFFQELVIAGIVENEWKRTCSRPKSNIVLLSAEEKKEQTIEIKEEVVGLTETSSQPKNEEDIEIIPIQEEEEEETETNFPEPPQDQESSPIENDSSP

B1: M24E (VHH)
VHH: DVQLQASGGGLVQAGGSLRLSCAASGSTFSIKHHGWYRRAPGNQREWVAGISSENITNVAEAVKGRFTISRDNAKNTVYLQMNSLKVEDTAVYYCYAQDNDYRFLHRFWGQGTQVTVSL
notes: also called bt-M24E; anti-CD20 sdAb M24E
B2: M112D (VHH)
VHH: B1 VHH with G15E, S30G, D101N
notes: also called bt-M112D; anti-CD20 sdAb M112D
B3: M28C (VHH)
VHH: B1 VHH with S52N, E61G, Y94F
notes: also called bt-M28C; anti-CD20 sdAb M28C

Biological target: T1, CD20-Hoc fusion protein (human; T4 phage, UniProt P11836 142-187; P18056 1-376, limits assumed)
T1 construct: also called Hoc-CD20; Hoc-CD
Test: SPR

Binder	binding
B1	binds
B2	binds
B3	binds
